These results are taken from publication PMC12514245, “Impaired migration and lung invasion of human melanoma by a novel small molecule targeting the transmembrane domain of death receptor p75^NTR” (EMBO Molecular Medicine, 2025).

Results are given in words; binding and its absence hold for the method and conditions named. Some results given as binding are weak or reduced against the parent protein; the word gives no strength. Tags and fused reporters may be left off the sequences shown.

The assay has as its target p75^NTR TMD-AraTM chimera, wild type (MBP - p75^NTR TMD - AraC) (human). As to the kind of experiment: AraTM (TMD-mediated dimerisation of AraC, GFP reporter in E. coli); MBP-TMD-AraC chimera expressed in AS19 E. coli with Ara-GFP reporter plasmid; 1 mM IPTG, 4 h at 38 °C; GFP/OD630 read-out; baseline without drug, WT set at 100%.

Consider NLIPVYCSILAAVVVGLVAYIAFKRW (domain or fragment) [p75^NTR TMD-AraTM chimera, wild type (MBP - p75^NTR TMD - AraC)], for which the binding result is given as “binds”.
